Data taken from PMC11789017, “Preventing inappropriate signals pre- and post-ligand perception by a toggle switch mechanism of ERECTA” (Proceedings of the National Academy of Sciences of the …, 2025).

Assays:
[1] = molecular target: T1, GST-BKI1 (BRI1 KINASE INHIBITOR 1) (UniProt Q9FMZ0); experiment: BLI; recombinantly purified GST-BKI1 or GST-PUB30 and MBP-ER_CD variants at seven concentrations (156.25, 312.5, 625, 1,250, 2,500, 5,000 and 10,000 nM); three independent experiments; who was immobilised is in SI Appendix; both purified
T1 sequence: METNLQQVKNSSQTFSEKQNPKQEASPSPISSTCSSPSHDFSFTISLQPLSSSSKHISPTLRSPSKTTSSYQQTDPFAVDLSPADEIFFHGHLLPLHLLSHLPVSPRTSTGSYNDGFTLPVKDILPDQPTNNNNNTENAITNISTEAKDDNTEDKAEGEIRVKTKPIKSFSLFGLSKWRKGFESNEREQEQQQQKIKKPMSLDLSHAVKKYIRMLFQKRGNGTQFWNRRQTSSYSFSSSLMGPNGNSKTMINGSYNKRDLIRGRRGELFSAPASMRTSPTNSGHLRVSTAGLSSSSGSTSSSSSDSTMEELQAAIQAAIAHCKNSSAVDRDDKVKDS

[2] = molecular target: T2, GST-PUB30 (U-box E3 ligase PUB30) (UniProt Q058P4); experiment: as above
T2 sequence: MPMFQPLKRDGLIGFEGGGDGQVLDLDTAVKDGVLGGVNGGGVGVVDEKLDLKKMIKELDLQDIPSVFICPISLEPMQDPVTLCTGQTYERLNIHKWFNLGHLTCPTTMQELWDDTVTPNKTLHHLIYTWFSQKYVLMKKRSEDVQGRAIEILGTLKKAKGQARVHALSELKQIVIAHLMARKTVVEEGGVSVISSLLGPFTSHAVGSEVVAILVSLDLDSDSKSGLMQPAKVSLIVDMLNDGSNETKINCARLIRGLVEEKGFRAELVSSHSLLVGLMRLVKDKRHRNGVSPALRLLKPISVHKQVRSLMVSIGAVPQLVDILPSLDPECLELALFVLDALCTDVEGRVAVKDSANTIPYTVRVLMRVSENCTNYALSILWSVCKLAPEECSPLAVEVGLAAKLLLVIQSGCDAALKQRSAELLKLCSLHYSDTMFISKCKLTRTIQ

binding [1]: no binding (tested: up to 10,000 nM)
binding [2]: no binding (tested: up to 10,000 nM)
Substance: MBP-ER_CD_(ΔC43) (Arabidopsis) (domain or fragment)

These are yes or no findings as the source states them, for the method shown. Sequences can lack the tags named with a protein.
